Source: PubChem BioAssay AID1259415 (National Center for Advancing Translational Sciences (NCATS), 2018)
Screen size: about 410,000 compounds; about 18,000 (4.4%) were called active. The shares of active, inactive and inconclusive entries below differ from those in the screen. Cut-off read from the data, not from the text of the source: active = activity change below about -60%; inconclusive = no clear call, values can overlap the other calls; inactive = above about -39%.

experiment: qHTS Assay for inhibitors of the human cytomegalovirus (HCMV); conditions: HFF cells, HCMV-luciferase reporter, 72 h; at 57.5 µM; hits give low values
In short: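 Human foreskin fibroblasts infected with luciferase-reporter HCMV at MOI 1 PFU/cell, compounds at two doses. Luciferase measured 72 h post infection; normalized to buffer-only basal and Salinomycin (10uM) controls.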
% is set by controls: 0 for no effect and ±100 for the full control effect.

| Compound | activity change, negative = inhibition |
| --- | --- |
| CC(CCc1ccc(O)cc1)N1CCC(Oc2ccc(C(=O)N3CCCC3)cc2)CC1 (stereo not given) | active: -60.3% |
| O=C(C1CCN(S(=O)(=O)c2ccc(Cl)c(C(F)(F)F)c2)CC1)N1CCC1 | inconclusive: -49.6% |
| O=C(c1noc2c1CCCCC2)N1CCN(c2cccc(Cl)c2)CC1 | inconclusive: -56% |
| CCN1CCN(c2nnc(-n3cccc3C(=O)NCc3ccccc3OC)s2)CC1 | inconclusive: 0% |
| CC1CCN(c2ccc3c(c2)S(=O)(=O)c2cccc(C(=O)NC[C@@H]4CCCO4)c2C3=O)CC1 | active: -94.1% |
| CCN(CC)c1ccc(C(=O)Nc2ccccc2)cc1[N+](=O)[O-] | inactive: 9.97% |
| CC(C)CNC(=O)c1ccc(COc2ccc(Cl)cc2Cl)o1 | inactive: -14.3% |
| Cc1ccc(/C=N/NC(=O)CSc2nnc(-c3ccc(Cl)cc3)n2-c2ccc(Cl)cc2)o1 | inconclusive: -41.2% |
| Nc1ccc2c3c(cccc13)CC2 | inconclusive: -52.4% |
| Cc1nnn(C23CC4CC(CC(C4)C2)C3)n1 | inactive: 20.5% |
| COCc1nnc(NC(=O)CS(=O)(=O)c2ccc(C)cc2)s1 | inconclusive: -40.3% |
| Cc1cc(C)n(-c2c(C)[nH]c3ccccc23)n1 | inconclusive: -48.4% |
| COc1ccccc1NC(=O)c1cccc2c(Br)cccc12 | inconclusive: -55% |
| CCCCNC(=O)c1cc(-c2cccnc2)nc2ccc(S(=O)(=O)NCCCC)cc12 | inconclusive: -52.3% |
| O=C(CNC1CC1)Nc1cc(C(F)(F)F)ccc1Cl | inconclusive: -47.2% |
| Cc1cc(C)cc(NC(=O)CSc2nc3c(oc4ccccc43)c(=O)n2-c2ccccc2)c1 | inconclusive: -55.3% |
| O=C(N/N=C/c1ccccc1[N+](=O)[O-])c1ccncc1 | inactive: 7.8% |
| CCn1c(SCC(=O)O)nnc1-c1ccc(S(=O)(=O)N2CCCC2)cc1 | inconclusive: -47.9% |
| COc1ccc(NC(=O)CSc2nnc(C3CCCCC3)o2)c(OC)c1 | inactive: -14.2% |
| O=S(=O)(c1cccc2nsnc12)N1CCN(c2ccccc2F)CC1 | inconclusive: -49.7% |
| CCN(CC)C(=O)CSc1nc2cc3c(cc2c(=O)n1CCCC(=O)NCCc1ccc(OC)c(OC)c1)OCO3 | active: -67.2% |
| COC(=O)c1ccc(C(=O)Nc2cc(Cl)ccc2Cl)cc1NC(=O)c1ccccc1C | inconclusive: -55.4% |
| CC1CCC/C=C/C(=O)c2c(O)cc(O)cc2CC(=O)O1 (stereo not given) | active: -105% |
| CC(C)(C)OC(=O)N1CCC(N2CCN(Cc3ccccc3)C(=O)C2=O)CC1 | inactive: 16.1% |
| Cc1onc(-c2ccccc2Cl)c1C(=O)Oc1ccccc1F | inactive: -11.7% |
| COc1ccc(CNC(=O)N2[C@H]3CC[C@@H]2C=C(c2ccc(F)cc2OCc2ccccc2)C3)cc1OC | inconclusive: -41.1% |
| COc1cc(C(=O)NC(c2ccccc2Cl)c2cc(Cl)c3cccnc3c2O)cc(OC)c1OC (stereo not given) | active: -79.3% |
| Cc1nc(CSc2nsc(C)c2C#N)cs1 | inconclusive: -42.3% |

Taken from above:
COc1ccccc1NC(=O)c1cccc2c(Br)cccc12 – activity change, negative = inhibition: inconclusive: -55%
CC(CCc1ccc(O)cc1)N1CCC(Oc2ccc(C(=O)N3CCCC3)cc2)CC1 (stereo not given) – activity change, negative = inhibition: active: -60.3%
COc1cc(C(=O)NC(c2ccccc2Cl)c2cc(Cl)c3cccnc3c2O)cc(OC)c1OC (stereo not given) – activity change, negative = inhibition: active: -79.3%

(next part)

| Compound | activity change, negative = inhibition |
| --- | --- |
| Cc1ccc(Cl)cc1N1CCN(C(=O)CCS(=O)(=O)c2ccc3c(c2)NC(=O)CO3)CC1 | inconclusive: -53.3% |
| CCC1CCC(C(=O)NC(C(=O)NCCc2ccc(S(N)(=O)=O)cc2)C(C)C)CC1 (stereo not given) | inconclusive: -50.5% |
| COc1ccccc1C(=O)Nc1cccc(C(=O)OCc2cc(=O)n3c4c(sc3n2)CCCC4)c1 | inconclusive: -51.7% |
| CCCSc1ncc(Cl)c(C(=O)Nc2sc(C(C)=O)c(C)c2C(=O)OCC)n1 | inconclusive: -43.9% |
| O=C(Cc1ccc(Cl)cc1)NCC(c1cccs1)S(=O)(=O)c1ccccc1 (stereo not given) | inactive: -16.1% |
| CCOc1ccc(NC(=S)Nc2ccccc2C2(C)CC2)cc1 | inconclusive: -53.1% |
| CC(C)CCOC(=O)C[N+](C)(C)CCOC1CC2CCC1(C)C2(C)C (stereo not given) | inconclusive: -54.2% |
| OC(c1ccccc1)c1nc(-c2cccc3cccnc23)cs1 (stereo not given) | inconclusive: -46.4% |
| Cc1ccc(S(=O)(=O)N(CC(=O)Nc2ccc(F)cc2F)Cc2ccc(F)cc2)cc1 | inconclusive: -56.8% |
| CCN(CC)c1cc(C)c2cc(NC(=O)c3cc(OC)cc(OC)c3)ccc2n1 | active: -84.5% |
| O=C(COC(=O)c1cnccn1)c1ccc(Cl)cc1 | inconclusive: -45.5% |
| CC(C)(C)N1CC(C(=O)c2ccccc2)C1c1ccccc1 (stereo not given) | inconclusive: -42.4% |
| Cc1csc2sc(-c3ccnc(SCC(=O)NCc4ccccc4)n3)c(C)c12 | inconclusive: -45.4% |
| COc1ccccc1C(=O)N/C(=C/c1ccc(Br)cc1)C(=O)NCCO | inconclusive: -47.3% |
| S=c1[nH]nc(-c2cccnc2)n1/N=C/C=C/c1ccccc1 | inconclusive: -53.3% |
| Cc1ccc(C(=O)Nc2cc3ccccc3oc2=O)cc1 | active: -66.9% |
| COc1cccc(CNC(=O)CCC2CCCN(C(=O)c3cccc(Cl)c3)C2)c1 (stereo not given) | inconclusive: -57.4% |
| CC(C)(C)c1ccc(C(=O)N2CCN(C(=O)C3CCCCC3)CC2)cc1 | active: -76.7% |
| O=C(CCl)N(Cc1ccccc1)c1ccccc1 | active: -98% |
| CN(C)c1ccc(NC(=O)CSc2nc3ccccc3c(=O)n2CC2CCCO2)cc1 (stereo not given) | inconclusive: -41.7% |
| O=C(NCCC(=O)N1CCC2(CC1)NCCc1[nH]cnc12)c1cccc(C(F)(F)F)c1 | inconclusive: -40.1% |
| O=C(CN1C(=O)CSc2ccc(S(=O)(=O)N3CCOCC3)cc21)NCc1ccc(F)cc1 | inconclusive: -48.8% |
| COC(=O)c1ccc(COc2ccccc2/C=N/NS(=O)(=O)c2ccc(C)cc2)cc1 | active: -94% |
| CC(C)(C)N(NS(=O)(=O)c1ccc(F)cc1)c1ccccc1 | inconclusive: -45.8% |
| CC1CCN(C(=O)c2ccc3c(c2NCCO)C(=O)c2ccccc2C3=O)CC1 | inactive: 25.9% |
| CCOc1ccc(OCC(=O)Nc2ccc(S(N)(=O)=O)cc2)cc1 | inconclusive: -47.3% |
| Cc1csc2nc(COC(=O)c3cccc(NC(=O)COc4ccccc4Cl)c3)cc(=O)n12 | active: -61% |
